Each number is a percent effect as filed. The record does not define 0% and 100%; most values in the screen are far below 50% and negative numbers occur (in some assays of this library far below -100). The compounds are a random part of those screened.

By UniProt entry, the sequences of proteins in these tests, tags left out. Residues count along the entry.
UniProt Q4DA54, 1-478: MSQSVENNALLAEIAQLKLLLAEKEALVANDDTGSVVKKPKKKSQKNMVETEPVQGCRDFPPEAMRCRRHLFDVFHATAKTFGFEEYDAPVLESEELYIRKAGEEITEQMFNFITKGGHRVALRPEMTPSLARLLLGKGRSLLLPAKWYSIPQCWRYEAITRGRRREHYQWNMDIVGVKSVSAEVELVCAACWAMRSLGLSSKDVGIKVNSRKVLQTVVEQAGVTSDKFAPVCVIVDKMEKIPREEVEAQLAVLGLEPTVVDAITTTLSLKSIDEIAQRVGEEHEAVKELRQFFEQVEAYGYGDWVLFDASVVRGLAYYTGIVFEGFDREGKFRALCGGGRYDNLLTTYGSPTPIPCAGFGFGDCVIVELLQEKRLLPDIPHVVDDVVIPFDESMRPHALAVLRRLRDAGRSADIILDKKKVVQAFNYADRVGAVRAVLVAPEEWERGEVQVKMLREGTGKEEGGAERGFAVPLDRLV
UniProt A4I591, 1-473: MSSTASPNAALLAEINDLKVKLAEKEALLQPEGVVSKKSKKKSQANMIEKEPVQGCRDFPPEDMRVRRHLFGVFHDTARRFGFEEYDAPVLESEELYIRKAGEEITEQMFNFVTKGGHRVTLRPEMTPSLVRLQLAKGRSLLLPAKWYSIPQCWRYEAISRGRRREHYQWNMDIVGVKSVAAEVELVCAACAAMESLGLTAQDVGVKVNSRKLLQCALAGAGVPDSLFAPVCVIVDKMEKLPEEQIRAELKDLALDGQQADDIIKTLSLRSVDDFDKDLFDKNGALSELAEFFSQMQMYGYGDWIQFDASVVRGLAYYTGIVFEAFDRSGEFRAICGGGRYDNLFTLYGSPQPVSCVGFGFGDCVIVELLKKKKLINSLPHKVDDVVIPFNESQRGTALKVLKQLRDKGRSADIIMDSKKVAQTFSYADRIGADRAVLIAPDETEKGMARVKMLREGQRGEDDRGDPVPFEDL

TcHisRS: 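Enzyme assay of histidyl-tRNA synthetase; the read-out is not stated. Target: Histidine-tRNA ligase, Trypanosoma cruzi CL Brener (UniProt Q4DA54). Tested at 30 µM. The record gives no direction; compounds that gave an IC50 in retests scored well above the rest, so higher reads as stronger inhibition. Size under these conditions: about 69,000 compounds, about 31 of them at 50% or above in at least one test.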
LiHisRS: 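Enzyme assay of histidyl-tRNA synthetase; the read-out is not stated. Target: Histidine-tRNA ligase, Leishmania infantum (UniProt A4I591). Tested at 30 µM. The record gives no direction; compounds that gave an IC50 in retests scored well above the rest, so higher reads as stronger inhibition. The assay is labelled LdHisRS but filed under L. infantum. Of about 69,000 compounds tested this way, about 410 (0.6%) reached 50% or more in at least one test.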

* O=C(CCNc1ncccn1)Nc1ccc(Cn2cncn2)cc1 | TcHisRS: 5.208%; LiHisRS: 10.42%
* CCOC(=O)c1c(NC(=O)CN2CCN(C(C)=O)CC2)sc2c1CCC2 | TcHisRS: 2.174%; LiHisRS: 14.29%
* Cc1cc(NC(=O)CN2CCc3cnc(C)nc3C2)on1 | TcHisRS: 3.03%; LiHisRS: 28.79%
* O=C(Nc1ccccc1-c1ccccc1)NC1CCC2(C1)OCCO2 (centres undefined) | TcHisRS: -5.699%; LiHisRS: -30.34%
* Cc1nccc(C(=O)NC(CN2CCCC2=O)c2ccccc2)n1 (centres undefined) | TcHisRS: 8.876%; LiHisRS: 21.43%
* c1ccc(O[C@H]2CO[C@@]3(CCN(Cc4ccc5c(c4)OCO5)C3)C2)nc1 | TcHisRS: 12.24%; LiHisRS: 15%
* O=C(c1cn[nH]c1)N1CCC2(CCCN(Cc3ccc(F)c(F)c3)C2)C1 (centres undefined) | TcHisRS: 4.516%; LiHisRS: 9.091%
* CC(=O)NCCCC(=O)N1CCc2[nH]c(-c3ccccc3)nc2C1 | TcHisRS: 0.8772%; LiHisRS: 17.74%
* CCC1=NC(SCC(=O)c2ccc(C)cc2)c2cc(CC)sc2N1 (centres undefined) | TcHisRS: 6.087%; LiHisRS: 10.34%
* CCCN1CCc2c(C(=O)N(C)Cc3ccccn3)nn(C)c2C1 | TcHisRS: 4.908%; LiHisRS: 13.68%
* CC(C)NC(=O)c1ccc2nnc(C3CN(C)CCN3C)n2c1 (centres undefined) | TcHisRS: 12.26%; LiHisRS: 7.071%
* CC(C)CC(=O)NCCn1nc(C2CCNC2)c2cccnc21 (centres undefined) | TcHisRS: 0%; LiHisRS: 19.79%
* Cn1cc(C2CN(C(=O)Cc3coc(-c4ccccc4)n3)CCO2)cn1 (centres undefined) | TcHisRS: 2.976%; LiHisRS: 11.83%
* COCCN(Cc1cccs1)c1nc(CCN)nc2ccccc12 | TcHisRS: 18%; LiHisRS: 26.53%
* Cc1cc(N2CCN(Cc3ccsc3)C(CCO)C2)nc(N)n1 (centres undefined) | TcHisRS: 9.091%; LiHisRS: 13.33%
* CS(=O)(=O)NCCNc1ncnc2cccc(F)c12 | TcHisRS: -0.9662%; LiHisRS: 14.17%
* CN1CCCCC1c1cncc(N2CCC(O)CC2)n1 (centres undefined) | TcHisRS: 7.576%; LiHisRS: 14.49%
* COc1ccccc1CNC(=O)CN(C)C(C)c1ccon1 (centres undefined) | TcHisRS: 9.756%; LiHisRS: 22.89%
* O=C([C@H]1C[C@H]2OCC[C@H]2N(Cc2ccoc2)C1)N1CCCO1 | TcHisRS: 8.867%; LiHisRS: 20.59%
* CC(C)NC(=O)c1n[nH]c(-n2cnnc2)n1 | TcHisRS: -1.639%; LiHisRS: 1.942%
* NC(=O)C1CCCN1Cc1cccc(NC(=O)c2ccsc2)c1 (centres undefined) | TcHisRS: -1.245%; LiHisRS: 16.5%
* CN(C)CCOCc1nnc2n1CCN(Cc1ccc(F)cc1)CC2 | TcHisRS: 10.48%; LiHisRS: 9.722%
* O=C1COC[C@H]([C@H](O)c2ccc(NC(=O)c3cccnc3)cc2)N1 | TcHisRS: -5.473%; LiHisRS: 27.03%
* N#Cc1ccccc1CN1CCCCC1Cn1cncn1 (centres undefined) | TcHisRS: 3.759%; LiHisRS: 16.67%
* CCOC1CCC2(CCN(C(=O)c3csnn3)CC2)c2ccccc21 (centres undefined) | TcHisRS: -2.793%; LiHisRS: 11.54%
* Cn1ncnc1-c1ccnc(NCCCc2ccncc2)n1 | TcHisRS: 0%; LiHisRS: 2.222%
* CC(=O)NCC(=O)N1CCc2nc(C)nc(C)c2CC1 | TcHisRS: 7.362%; LiHisRS: 17.09%
* CN1CCN(Cc2cn3c(n2)CN(C(=O)c2ccccn2)CC3)CC1 | TcHisRS: 7.463%; LiHisRS: 36.11%
* Cn1cc(CN2CCc3onc(C(=O)N4CCCC4)c3C2)cn1 | TcHisRS: -0.5587%; LiHisRS: 1.923%

Repeated from the top, 2 entries:

compound	TcHisRS	LiHisRS
O=C(CCNc1ncccn1)Nc1ccc(Cn2cncn2)cc1	5.208%	10.42%
CCOC(=O)c1c(NC(=O)CN2CCN(C(C)=O)CC2)sc2c1CCC2	2.174%	14.29%

Measurements from “University of Dundee, Small-Polar-MMV Screening Library” (2021), ChEMBL document CHEMBL3988442.